Measurements from patent publication US8226983B2, “Method for producing pulverized organic compound particle” (Activus Pharma Co., Ltd., priority 2007, dated 2012).
For at least one compound, name, drawing or mass did not settle the structure.

Test: Average particle diameter by BET type specific surface area analyzer
Assay type: physicochemical
Settings: BET method; for average particle diameter of the resulting particles: after pulverization; for average particle diameter of the starting organic compound: before pulverization
Source text: The average particle diameter of the particles can be measured by conventionally used particle size measurement techniques such as a microscopic method, a screening method, a Coulter counter method, a sedimentation method, an air permeation method, and a gas adsorption method, but the average particle diameter according to the present invention means the average particle diameter measured according to a gas adsorption method. The method is based on the principle that when molecules or ions having a known size are adsorbed to the surface of the particles, the particles adsorb the molecules or ion according to the specific surface area. Thus, the method is a method of determining the specific surface area using an adsorption isotherm equation or an isotherm, and calculating the average particle diameter, and the method is excellent as a method for measuring the average particle diameter of finely pulverized particles. Next, the present invention will be described in more detail by way of Examples, but the present invention is not intended to be limited to the following Examples. The measurement of the average particle size was all carried out using a BET type specific surface area analyzer (Macsorb type MH-1201, manufactured by Mountech Co., Ltd.).

Row | SMILES | average particle diameter of the resulting particles (hydrate) [nm] | average particle diameter of the starting organic compound | other results
1 | O=C(Nc1cccc2c(=O)cc(-c3nnn[nH]3)oc12)c1ccc(OCCCCc2ccccc2)cc1 [Example 16, pranlukast hydrate] | 73 | – | –
2 | C[C@@H]1C[C@H]2[C@@H]3CCC4=CC(=O)C=C[C@]4(C)[C@@]3(F)[C@@H](O)C[C@]2(C)[C@@]1(O)C(=O)CO [dexamethasone] | – | 1,249 nm | –
3 | C[C@@H]1C[C@H]2[C@@H]3CCC4=CC(=O)C=C[C@]4(C)[C@@]3(F)[C@@H](O)C[C@]2(C)[C@@]1(O)C(=O)CO [Comparative Example 12, dexamethasone] | – | – | average particle diameter of the resulting particles: 727 nm
4 | O=C(Nc1cccc2c(=O)cc(-c3nnn[nH]3)oc12)c1ccc(OCCCCc2ccccc2)cc1 [pranlukast hydrate] | – | 1,088 nm | –
5 | O=C(Nc1cccc2c(=O)cc(-c3nnn[nH]3)oc12)c1ccc(OCCCCc2ccccc2)cc1 [Comparative Example 11, pranlukast hydrate] | 577 | – | –
